# Reference: the supplement of paper PMC4604168 (melanoma cell lines)
# The list shows a part of the results. Repeats are few or missing, and single values can be far off.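 Imaging used 1,536-well plates; nuclei positive for cleaved PARP by antibody were divided by total DNA-stained nuclei to yield the apoptosis fraction. Doses for screening kept most cells viable, and cell lines differ markedly in resting and induced cleaved-PARP levels.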
# How the values were obtained:
# Assay in all cases: cleaved PARP positive nuclei fraction relative to DMSO control; melanoma cells; higher = more apoptosis
# Settings in all cases: library dose: low library concentration; 72 h
# [1] = test system: CBRC034 (line from a melanoma biopsy)
# [2] = test system: COLO792
# [3] = test system: COLO800
# [4] = test system: COLO829
# [5] = test system: G361
# [6] = test system: IPC-298
# [7] = test system: IST-MEL1
# [8] = test system: LB2518-MEL
# [9] = test system: LOXIMVI
# [10] = test system: MZ2-MEL
# [11] = test system: MeWo
# [12] = test system: RPMI7951
# [13] = test system: RVH-421
# [14] = test system: SkMel28
# [15] = test system: SkMel30
# [16] = test system: SkMel5
# [17] = test system: UACC257
# [18] = test system: UACC62
SMILES,cleaved PARP positive nuclei fraction [1] [%],cleaved PARP positive nuclei fraction [2] [%],cleaved PARP positive nuclei fraction [3] [%],cleaved PARP positive nuclei fraction [4] [%],cleaved PARP positive nuclei fraction [5] [%],cleaved PARP positive nuclei fraction [6] [%],cleaved PARP positive nuclei fraction [7] [%],cleaved PARP positive nuclei fraction [8] [%],cleaved PARP positive nuclei fraction [9] [%],cleaved PARP positive nuclei fraction [10] [%],cleaved PARP positive nuclei fraction [11] [%],cleaved PARP positive nuclei fraction [12] [%],cleaved PARP positive nuclei fraction [13] [%],cleaved PARP positive nuclei fraction [14] [%],cleaved PARP positive nuclei fraction [15] [%],cleaved PARP positive nuclei fraction [16] [%],cleaved PARP positive nuclei fraction [17] [%],cleaved PARP positive nuclei fraction [18] [%]
"CC(C)(C)c1cnc(CSc2cnc(NC(=O)C3CCNCC3)s2)o1 + COC(=O)c1sccc1S(=O)(=O)Nc1ccc(Nc2ccccc2)cc1OC [GSK0660] (first compound 0.01 µM, partner dose 1 µM)",151,55.8,80.7,107,247,39,43.1,45.5,69.3,89.2,305,158,104,38.7,18.6,86.6,60.2,187
"C#Cc1cccc(Nc2ncnc3cc(OCCOC)c(OCCOC)cc23)c1 [erlotinib] + Cn1cc(/C=C2\C(=O)Nc3cccnc32)c2ccccc21 [GW441756] (first compound 0.8 µM, partner dose 0.4 µM)",71.8,169,130,81.1,110,40.3,45.5,80.9,37.7,52.3,76.6,89.7,111,175,54.6,403,128,236
"C[C@]1(c2nc3c(C(N)=O)cccc3[nH]2)CCCN1 [Veliparib] + COc1ccc(-c2ccc3c(N4CCOCC4)nc(N4C[C@@H](C)O[C@@H](C)C4)nc3n2)cc1CO [KU0063794] (first compound 1.4 µM, partner dose 0.02 µM)",91.4,89.9,83.4,76.3,226,27.8,83.8,97.1,91.6,30.6,76.8,200,25.5,155,120,59.3,163,52.1
"Cc1cc(N2CCOCC2)cc2[nH]c(-c3c(NC[C@@H](O)c4cccc(Cl)c4)cc[nH]c3=O)nc12 + CCN(CC)CCCCNc1ncc2cc(-c3cc(OC)cc(OC)c3)c(NC(=O)NC(C)(C)C)nc2n1 [PD173074] (first compound 0.2 µM, partner dose 0.1 µM)",96.6,219,223,81.9,139,27.1,118,59.3,109,104,169,81.2,115,34.3,126,124,419,42.4
"C=CCn1c(=O)c2cnc(Nc3ccc(N4CCN(C)CC4)cc3)nc2n1-c1cccc(C(C)(C)O)n1 + COC(=O)c1sccc1S(=O)(=O)Nc1ccc(Nc2ccccc2)cc1OC [GSK0660] (first compound 0.02 µM, partner dose 1 µM)",127,181,220,83.1,65.3,71.1,108,171,105,147,61,39.3,96.6,91.7,51.4,103,103,94.4
"Cc1nc(Nc2ncc(C(=O)Nc3c(C)cccc3Cl)s2)cc(N2CCN(CCO)CC2)n1 [dasatanib] + CCN(CC)CCCCNc1ncc2cc(-c3cc(OC)cc(OC)c3)c(NC(=O)NC(C)(C)C)nc2n1 [PD173074] (first compound 0.004 µM, partner dose 0.1 µM)",138,159,47.4,160,90.9,215,99.5,82.9,37.1,151,112,114,167,261,26.2,31.3,272,91.6
"COc1cc(Nc2ncc(F)c(Nc3ccc4c(n3)NC(=O)C(C)(C)O4)n2)cc(OC)c1OC [Tamatinib] + O=C(Nc1ccccc1)c1cc([N+](=O)[O-])ccc1Cl [GW9662] (first compound 0.4 µM, partner dose 2 µM)",51.5,328,257,92.5,108,63.8,118,90.9,130,177,109,83.7,60.5,292,39.8,168,215,82.7
"C[C@]1(c2nc3c(C(N)=O)cccc3[nH]2)CCCN1 [Veliparib] + O=C1NC(=O)/C(=C/c2ccc(-c3ccc(F)cc3O)o2)S1 [AS252424] (first compound 1.4 µM, partner dose 1 µM)",74.5,39.7,75,115,216,33.5,76.8,98,40.7,94.6,114,277,93.2,38.5,55,56,72.9,112
"Cc1cc(N2CCOCC2)cc2[nH]c(-c3c(NC[C@@H](O)c4cccc(Cl)c4)cc[nH]c3=O)nc12 + COc1ccc2c(c1)CCC1C2CCC2(C)C(NCCCCCCN3C(=O)C=CC3=O)CCC12 [U73122] (first compound 0.2 µM, partner dose 0.4 µM)",90.9,91,241,109,148,55.7,84.2,172,93.9,27.6,55.3,42.4,31.3,98.5,204,49.6,66.3,41.2
"Cn1cncc1[C@@](N)(c1ccc(Cl)cc1)c1ccc2c(c1)c(-c1cccc(Cl)c1)cc(=O)n2C [tipifarnib] + O=C(O)C(=O)Nc1sc2c(c1C(=O)O)CCNC2 [TCS401] (first compound 0.01 µM, partner dose 1.66667 µM)",156,93,76.3,57.8,85.3,169,260,86.1,143,145,29.1,79.2,27.9,374,39.5,90.1,61.7,70.7
"C[C@@H]1CCN(C(=O)CC#N)C[C@@H]1N(C)c1ncnc2[nH]ccc12 + Cn1cc(/C=C2\C(=O)Nc3cccnc32)c2ccccc21 [GW441756] (first compound 1 µM, partner dose 0.4 µM)",89.8,37,152,54.5,81.7,109,137,87.4,86.5,102,112,255,69.3,87.7,176,57.9,53.5,158
"CC(C)(C)c1cnc(CSc2cnc(NC(=O)C3CCNCC3)s2)o1 + CC(C)CCN1c2nc(Nc3cc(F)c(O)c(F)c3)ncc2N(C)C(=O)C1C [BID1870] (first compound 0.01 µM, partner dose 0.2 µM)",51.1,73.3,129,104,170,168,58.5,93.6,37.3,192,58.6,229,35.4,198,26.8,134,156,72.1
"Nc1cccc2c1CN(C1CCC(=O)NC1=O)C2=O (centres undefined) [lenalidomide] + O=C1NC(=O)/C(=C/c2ccc(-c3ccc(F)cc3O)o2)S1 [AS252424] (first compound 1 µM, partner dose 1 µM)",188,189,133,146,71.4,86.1,281,76.3,82.1,91.1,51.8,77.3,27.7,89.8,25.6,28.3,78.6,39
"Cn1nnc2c(C(N)=O)ncn2c1=O [temozolomide] + Oc1cc(-c2nc(-c3ccccc3)[nH]c2-c2ccncc2)ccc1Cl [L779450] (first compound 2 µM, partner dose 0.2 µM)",97.4,86,27.7,79.1,101,147,92.8,95.2,36.1,74.1,57.8,171,243,109,369,53.7,77.2,645
"O=C(Nc1cccc(Cl)c1)Nc1ncc(CCNc2ncnc3ccsc23)s1 + COC(=O)c1sccc1S(=O)(=O)Nc1ccc(Nc2ccccc2)cc1OC [GSK0660] (first compound 0.0008 µM, partner dose 1 µM)",104,98.7,52.3,119,50.1,33.3,277,79.8,50.8,93.1,226,79.6,93,81.2,33.3,76.6,86.7,58.7
"CC(C)(C)c1cnc(CSc2cnc(NC(=O)C3CCNCC3)s2)o1 + Oc1nc(-c2ccc(C(F)(F)F)cc2)nc2c1CSCC2 [XAV939] (first compound 0.01 µM, partner dose 2 µM)",77.9,199,88.3,88,58.1,56.9,273,228,181,60.1,169,108,49.6,179,273,59.3,77.1,103
"OCCn1cc(-c2cnc3nnn(Cc4ccc5ncccc5c4)c3n2)cn1 + COc1cc2ncnc(Nc3ccc(Oc4ccccc4)cc3)c2cc1OC [SrcI1] (first compound 1 µM, partner dose 2 µM)",89.1,85.9,92.2,122,99.7,83.7,27.7,70.6,130,123,138,67.8,66.4,116,115,298,66.9,168
"C[C@@H]1CCN(C(=O)CC#N)C[C@@H]1N(C)c1ncnc2[nH]ccc12 + COC(=O)c1sccc1S(=O)(=O)Nc1ccc(Nc2ccccc2)cc1OC [GSK0660] (first compound 1 µM, partner dose 1 µM)",85.8,177,74,125,164,64.5,174,76.6,29.5,119,169,47.6,73.3,142,49.2,134,66.7,291

# Shown as tab-separated lines: part of the list above
SMILES	cleaved PARP positive nuclei fraction [1] [%]	cleaved PARP positive nuclei fraction [2] [%]	cleaved PARP positive nuclei fraction [3] [%]	cleaved PARP positive nuclei fraction [4] [%]	cleaved PARP positive nuclei fraction [5] [%]	cleaved PARP positive nuclei fraction [6] [%]	cleaved PARP positive nuclei fraction [7] [%]	cleaved PARP positive nuclei fraction [8] [%]	cleaved PARP positive nuclei fraction [9] [%]	cleaved PARP positive nuclei fraction [10] [%]	cleaved PARP positive nuclei fraction [11] [%]	cleaved PARP positive nuclei fraction [12] [%]	cleaved PARP positive nuclei fraction [13] [%]	cleaved PARP positive nuclei fraction [14] [%]	cleaved PARP positive nuclei fraction [15] [%]	cleaved PARP positive nuclei fraction [16] [%]	cleaved PARP positive nuclei fraction [17] [%]	cleaved PARP positive nuclei fraction [18] [%]
C[C@]1(c2nc3c(C(N)=O)cccc3[nH]2)CCCN1 [Veliparib] + O=C1NC(=O)/C(=C/c2ccc(-c3ccc(F)cc3O)o2)S1 [AS252424] (first compound 1.4 µM, partner dose 1 µM)	74.5	39.7	75	115	216	33.5	76.8	98	40.7	94.6	114	277	93.2	38.5	55	56	72.9	112
Cc1cc(N2CCOCC2)cc2[nH]c(-c3c(NC[C@@H](O)c4cccc(Cl)c4)cc[nH]c3=O)nc12 + COc1ccc2c(c1)CCC1C2CCC2(C)C(NCCCCCCN3C(=O)C=CC3=O)CCC12 [U73122] (first compound 0.2 µM, partner dose 0.4 µM)	90.9	91	241	109	148	55.7	84.2	172	93.9	27.6	55.3	42.4	31.3	98.5	204	49.6	66.3	41.2
Cn1cncc1[C@@](N)(c1ccc(Cl)cc1)c1ccc2c(c1)c(-c1cccc(Cl)c1)cc(=O)n2C [tipifarnib] + O=C(O)C(=O)Nc1sc2c(c1C(=O)O)CCNC2 [TCS401] (first compound 0.01 µM, partner dose 1.66667 µM)	156	93	76.3	57.8	85.3	169	260	86.1	143	145	29.1	79.2	27.9	374	39.5	90.1	61.7	70.7
